Values of other authors as cited in patent US20240286998A1, “F[…], ANALOGUES THEREOF, AND METHODS USING SAME” (Saint Joseph's University, priority 2021, published 2024).
At least one compound was matched to its structure with a doubt left.

Test system: C57BL/6J mice
Conditions: reported values of known 5HT2A agonists run under comparable conditions; dash = ED50 could not be estimated; cited from earlier work

Row | Compound | HTR ED50 μmol/kg (95% CI) | HTR ED50 mg/kg (95% CI)
1 | CCN(CC)CCc1c[nH]c2ccccc12 [DET, diethyltryptamine] | 6.85 (4.72-9.93) μmol/kg | 2.28 (1.57-3.30) mg/kg
2 | CN(C)CCc1c[nH]c2ccccc12 [DMT, dimethyl tryptamine] | 5.05 (3.55-7.19) μmol/kg | 1.54 (1.08-2.19) mg/kg
